PubChem BioAssay AID504467 (National Center for Advancing Translational Sciences (NCATS), 2011)
Out of some 330,000 compounds screened, about 7,700 (2.3%) were called active. The shares of active, inactive and inconclusive entries below differ from those in the screen. Calls come from the whole dose curve; as a rule, active = well fitted inhibition curve with a large enough effect; inconclusive = small, poorly fitted or top-dose-only effect, or effect the other way; inactive = flat fitted curve, though single readings scatter. Potencies beside an inconclusive call are fits to weak or partial responses and may not hold up.

assay: qHTS screen for small molecules that inhibit ELG1-dependent DNA repair in human embryonic kidney (HEK293T) cells expressing luciferase-tagged ELG1; details: HEK293T ELG1-luciferase reporter, luminescence, 16 h, DNA damage induced by 5-fluorouridine; activity change, negative = inhibition: at 46.1 µM (top of the series); note: nearly all actives have a fitted effect of over 55% in size
Outline: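 In this reporter screen, reduction of luminescence relative to DMSO vehicle indicated activity. Compounds and 5-fluorouridine were added together to 2,000 cells per well, incubated for 16 hr at 37 °C, then developed with ONE-Glo.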
% is set by controls: 0 for no effect and ±100 for the full control effect; potency is the fitted concentration of half-maximal effect.

| SMILES | activity change, negative = inhibition | Potency |
| --- | --- | --- |
| CCCCCCC(=O)OCC(=O)c1ccc2c(c1)NC(=O)CO2 | inactive: -12.8% | – |
| CCOC(=O)c1cccc(NC(=O)CN(c2ccc(C)cc2)S(=O)(=O)c2c(C)noc2C)c1 | – | inconclusive: 29.1 µM [inhibitor, single point] |
| CS(=O)(=O)/C(C#N)=C/c1cccn1S(=O)(=O)c1ccccc1 | inactive: 5.39% | – |
| CC(C)c1ccc(OC(=O)NCCO)cc1 | – | inconclusive: 20.6 µM [activator, single point] |
| CC(=O)n1cc([C@@H]2C=C(C(=O)N3CCOCC3)O[C@H](OCc3ccc(CO)cc3)C2)c2ccccc21 | – | inconclusive: 29.1 µM [inhibitor, single point] |
| Cc1nc(N2CCN(c3ccccn3)CC2)c2c(C)c(C(=O)Nc3ccc(F)cc3F)sc2n1 | – | active: 11.6 µM |
| O=C(CN1CCCc2ccccc21)N/N=C/c1ccccc1O | – | inconclusive: 11.6 µM [inhibitor, partial curve] |
| COc1ccc(C2/C(=C(\O)c3ccc4c(c3)OCCO4)C(=O)C(=O)N2c2nc(C)c(C(C)=O)s2)cc1 (stereo not given) | – | inconclusive: 18.3 µM [activator, single point] |
| Cc1ccnc(SCC(=O)Nc2sc3c(c2C#N)CCC(C(C)(C)C)C3)n1 (stereo not given) | – | inconclusive: 10.3 µM [inhibitor, partial curve, poor fit] |
| C=CCNC(=O)C1CCC(CNc2nc(=S)[nH]c3ccccc23)CC1 (stereo not given) | inactive: -3.08% | – |
| Cn1c(N)c(Sc2ccccc2[N+](=O)[O-])c(=O)n(C)c1=O | inactive: 16.6% | – |
| COc1ccccc1-c1nn(Cc2ccccc2)cc1/C=C/C(=O)O | inactive: 0% | – |
| CCN(CC(=O)Nc1ccc2c(c1)OCCO2)C(=O)/C=C/c1ccc(OC)c(OC)c1 | inactive: 4.14% | – |
| COC(=O)c1sc2ccccc2c1NC(=O)c1cccs1 | – | inconclusive: 25.9 µM [inhibitor, partial curve, poor fit] |
| FC(F)Oc1ccc(-n2cc(-c3ccccc3)[n+]3c2CCCCC3)cc1 | – | active: 16.4 µM |
| COc1cc(-c2nc(-c3ccc(NC(=O)c4ccc5c(c4)OCO5)cc3)no2)cc(OC)c1OC | – | inconclusive: 23.1 µM [activator, single point] |
| CCC(=O)Nc1ccc(S(=O)(=O)N2CCN(c3ccc(F)cc3)CC2)cc1 | inactive: -18.3% | – |
| Cc1cc(NCCCO)n2nc(-c3cccs3)cc2n1 | – | inconclusive: 18.3 µM [activator, partial curve, poor fit] |
| COc1cccc(CNC(=O)C2CCCN(S(=O)(=O)c3ccc4c(c3)C(C)(C)C(=O)N4C)C2)c1 (stereo not given) | – | inconclusive: 16.4 µM [inhibitor, single point] |
| C=C1c2ccccc2NC(=O)N1c1ccc(C)cc1 | – | inconclusive: 29.1 µM [activator, single point] |
| COc1cc(CC(NC(C)=O)C(=O)NC2CCN(S(=O)(=O)c3ccc(NC(C)=O)cc3)CC2)cc(OC)c1 (stereo not given) | inactive: 26.9% | – |
| CC(C)(CO)NCC(O)COc1ccc2c(c1)CCC2 (stereo not given) | inactive: -1.49% | – |
| C=CCc1cccc(Cl)c1OCCCNC1CCCC1 | – | inconclusive: 18.3 µM [inhibitor, single point] |
| O=C(Cc1ccc(Br)cc1)NC1CCCCC1 | – | inconclusive: 29.1 µM [activator, single point] |

Part of the list above, with each value named:
Cc1ccnc(SCC(=O)Nc2sc3c(c2C#N)CCC(C(C)(C)C)C3)n1 (stereo not given)
  Potency: inconclusive: 10.3 µM [inhibitor, partial curve, poor fit]
C=CCNC(=O)C1CCC(CNc2nc(=S)[nH]c3ccccc23)CC1 (stereo not given)
  activity change, negative = inhibition: inactive: -3.08%
Cn1c(N)c(Sc2ccccc2[N+](=O)[O-])c(=O)n(C)c1=O
  activity change, negative = inhibition: inactive: 16.6%
COc1ccccc1-c1nn(Cc2ccccc2)cc1/C=C/C(=O)O
  activity change, negative = inhibition: inactive: 0%

(list continues)

| SMILES | activity change, negative = inhibition | Potency |
| --- | --- | --- |
| Cc1cc(N=Nc2ccc3ccccc3c2)ccc1O | – | inconclusive: 3.16 µM [activator, full curve] |
| CC(C)(C)C1c2[nH]c3ccccc3c2CCN1CCCn1cccn1 (stereo not given) | inactive: -2.06% | – |
| NC(=S)N/N=C/c1c(O)c(Br)cc2oc3c(c12)CCCC3 | – | active: 20.6 µM |
| COc1ccc(C)cc1N1C(=N)/C(=C2/Nc3ccccc3S2)C(c2ccccc2)C1=O (stereo not given) | – | inconclusive: 10.3 µM [inhibitor, partial curve] |
| O=C(/C=C/c1ccc(S(=O)(=O)N2CCOCC2)cc1)Nc1cc(F)ccc1F | – | inconclusive: 32.6 µM [inhibitor, single point] |
| CC(=O)c1ccc(N2CCN(c3ccc(C(N)=O)cc3[N+](=O)[O-])CC2)cc1 | – | inconclusive: 32.6 µM [inhibitor, single point] |
| CC(C)c1ccccc1NC(=O)COC(=O)c1cc([N+](=O)[O-])ccc1N1CCOCC1 | – | inconclusive: 20.6 µM [inhibitor, single point] |
| Cc1c(N(C)C(=O)C23CC4CC(CC(C4)C2)C3)c(=O)n(-c2ccccc2)n1C | – | inconclusive: 20.6 µM [activator, partial curve, poor fit] |
| CCN(CC)S(=O)(=O)c1ccc(NC2c3ncccc3C(=O)N2Cc2ccccc2)cc1 (stereo not given) | – | inconclusive: 14.6 µM [inhibitor, partial curve, poor fit] |
| COC(=O)c1ccc(CSc2nc3sc(C(=O)O)c(C)c3c(=O)[nH]2)cc1 | inactive: 8.11% | – |
| Cc1ccc(NC(=O)c2ccc3nsnc3c2)c(Cl)c1 | – | inconclusive: 2.59 µM [activator, partial curve] |
| CCOC(=O)c1nc(NCc2ccccc2)c2ccccc2n1 | inactive: -7.6% | – |
| COc1ccc(NS(=O)(=O)c2c(C)cc(C)cc2C)cc1 | – | inconclusive: 23.1 µM [inhibitor, single point] |
| CCOC(=O)c1c(CN2CCOCC2)n(-c2ccccc2)c2cc(Br)c(OC)cc12 | – | inconclusive: 20.6 µM [inhibitor, single point] |
| COc1cc(/C=C/C(=O)NCCn2c(C)cc3ccccc32)cc(OC)c1OC | – | inconclusive: 13 µM [inhibitor, partial curve, poor fit] |
| CSc1nc(SCCO)c2sc3nc(-c4ccco4)c4c(c3c2n1)CC(C)(C)OC4 | inactive: 9.04% | – |
| Cc1ccc(C)c(OCC(=O)Nc2ccc(C(=O)O)cc2NC(=O)COc2cc(C)ccc2C)c1 | inactive: -7.63% | – |
| CCOc1ccccc1/C=N/Nc1nc2c(N)ncnc2n1[C@H]1O[C@@H](CO)[C@H](O)[C@@H]1O | – | inconclusive: 18.3 µM [inhibitor, single point] |
| COc1ccc(N(Cc2cc3cccc(C)c3[nH]c2=O)S(=O)(=O)c2ccc(Cl)cc2)cc1 | inactive: -3.95% | – |
| COC(=O)NNC(=O)c1ccc(C)c(Br)c1 | inactive: 5.95% | – |
| C/C=C/C(=O)OCC(=O)Nc1nc2ccc(C)cc2s1 | – | inconclusive: 18.4 µM [activator, single point] |
| COc1ccc(CCNC(=O)CSc2nc(-c3ccc(OC)c(OC)c3)ccc2C#N)cc1 | – | inconclusive: 7.31 µM [inhibitor, partial curve] |
| Nc1nnc(SCC(=O)NC2CCCC2)s1 | – | inconclusive: 16.4 µM [activator, partial curve, poor fit] |
| CCCOc1cccc(C(=O)Nc2cccc3ncccc23)c1 | inactive: -21.8% | – |

| SMILES | activity change, negative = inhibition | Potency |
| --- | --- | --- |
| CN(C)S(=O)(=O)c1cccc(NC(=O)COC(=O)c2c[nH]c(=O)[nH]c2=O)c1 | inactive: 22.7% | – |
| Cc1cccn2c(=O)nc(SCC(=O)NCc3ccc4c(c3)OCO4)nc12 | – | inconclusive: 3.26 µM [activator, partial curve] |
| CCOc1ccc(-n2c(C)cc(/C=C3/C(=N)N4C(=NC3=O)SN=C4S(C)(=O)=O)c2C)cc1 | inactive: -2.31% | – |
| CCC(=O)NC(=S)Nc1ccc(NC(=O)c2ccco2)c(OC)c1 | inactive: -14.5% | – |
| CC1CCc2c(nc3ncnn3c2NCCc2ccccc2F)C1 (stereo not given) | – | inconclusive: 20.6 µM [inhibitor, single point] |
| O=C1NC(=Nc2ccccc2Br)SC1(CO)CO | – | inconclusive: 1.12 µM [inhibitor, full curve, poor fit] |
| CCN(CC)C1CCN(C(=O)c2ccc(OC3CCN(Cc4ccccn4)CC3)cc2)C1 (stereo not given) | – | inconclusive: 20.6 µM [activator, single point] |
| Cc1cc(=O)oc2cc(OCC(=O)N3CC[C@@]4(O)CCCC[C@H]4C3)c(Cl)cc12 | inactive: 29.8% | – |
| Cc1ccc(C2=NNC(C(O)C(O)C(O)C(C)O)S2)cc1 (stereo not given) | – | inconclusive: 16.4 µM [activator, partial curve] |
| O=C(COc1ccc(S(=O)(=O)N2CCCC2)cc1Cl)NCc1ccc2c(c1)OCO2 | – | inconclusive: 8.2 µM [inhibitor, single point] |
| O=C(c1ccc(Cn2c(=O)[nH]c3ccccc3c2=O)cc1)N1CCN(c2ccccn2)CC1 | – | inconclusive: 23.1 µM [inhibitor, single point] |
| O=C(COc1cc(Cl)c(Cl)cc1Cl)NC(=O)Nc1ccc2c(c1)OCCO2 | – | inconclusive: 18.4 µM [activator, partial curve] |
| CC1(C)C(Cl)C(=O)C(C(=O)c2ccccc2)C(=O)C1Cl (stereo not given) | inactive: 1.02% | – |
| O=C1c2oc3ccccc3c(=O)c2C(c2cccnc2)N1Cc1ccco1 (stereo not given) | inactive: 6.45% | – |
| O=C(NC1CC1)C1CCN(S(=O)(=O)c2ccc(Cl)c([N+](=O)[O-])c2)CC1 | – | inconclusive: 29.1 µM [inhibitor, single point] |
| CSc1nc2nccc(-c3ccc(-c4ccccc4)cc3)n2n1 | – | inconclusive: 20.6 µM [inhibitor, single point] |
| CC1c2cc3c(cc2CCN1CC(=O)Nc1ccc(S(=O)(=O)N2CCCC2)cc1)OCCCO3 (stereo not given) | – | inconclusive: 23.1 µM [inhibitor, partial curve] |
| Cc1ccc(NC(=O)CNC(=O)Cc2cccc3ccccc23)nc1 | inactive: 22.9% | – |
| Cc1ccc2nc3c(cc(C(=O)NCC4CCCO4)c(=N)n3C3CCCC3)c(=O)n2c1 (stereo not given) | inactive: -0.842% | – |
| CC(C)(C)c1ccccc1NC(=S)NCc1ccccc1 | – | inconclusive: 10.3 µM [activator, partial curve, poor fit] |
| CCCCNc1c(-c2ccc(SC3CCCCC3)cc2)nc2cnccn12 | – | inconclusive: 29.1 µM [inhibitor, single point] |
| O=C(CN(c1ccccc1)S(=O)(=O)c1ccccc1)NCCSc1nc2ccccc2s1 | – | inconclusive: 29.1 µM [inhibitor, single point] |
